# From the supplement of paper PMC5355238
# Structures can show the parent of a compound that is named as a salt. This is one part of the list. Most entries show no effect beyond the scatter of the controls.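 Reh, a human leukemia cell line, is read out by flow cytometry as the median γH2AX antibody signal in S-phase cells; the score counts standard deviations from the median difference of each paired plate set. Scores above 2.5 were candidate hits; scores below -2 mark compounds lowering MK1775-induced damage.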
# Tested on: Reh
# Experiment: Z' of S-phase gammaH2AX difference (drug + MK1775 minus drug alone) (Z-score); higher = stronger synergistic S-phase DNA damage with MK1775
# Conditions: MK1775 concentration 400 nM; first compound 10 µM; 4 h
row,SMILES,Z' of S-phase gammaH2AX difference (Z-score)
1,CCCN(CCC)CCc1ccc(O)c(O)c1 [Dipropyldopamine hydrobromide] + C=CCn1c(=O)c2cnc(Nc3ccc(N4CCN(C)CC4)cc3)nc2n1-c1cccc(C(C)(C)O)n1 [MK1775],inactive: -0.566
2,"Ic1ccccc1CNC1C2CCN(CC2)C1C(c1ccccc1)c1ccccc1 [L-703,606 oxalate] + C=CCn1c(=O)c2cnc(Nc3ccc(N4CCN(C)CC4)cc3)nc2n1-c1cccc(C(C)(C)O)n1 [MK1775]",inactive: -0.801
3,NCCc1c[nH]c2ccc(O)cc12 [Serotonin hydrochloride] + C=CCn1c(=O)c2cnc(Nc3ccc(N4CCN(C)CC4)cc3)nc2n1-c1cccc(C(C)(C)O)n1 [MK1775],inactive: -0.605
4,Clc1ccc(N2C[C@H]3CC[C@@H](C2)N3)nn1 + C=CCn1c(=O)c2cnc(Nc3ccc(N4CCN(C)CC4)cc3)nc2n1-c1cccc(C(C)(C)O)n1 [MK1775],inactive: 0.129
5,NCCc1c[nH]c2ccccc12 [Tryptamine hydrochloride] + C=CCn1c(=O)c2cnc(Nc3ccc(N4CCN(C)CC4)cc3)nc2n1-c1cccc(C(C)(C)O)n1 [MK1775],inactive: 0.114
6,CC[C@@H]1/C=C/C=C/C[C@H](C)[C@H](O)[C@](C)(O)C(=O)[C@H](C)[C@@H](O)[C@H](C)C(=O)[C@H](C)[C@@H](O)[C@H](C)/C=C/C(=O)O[C@H]2[C@@H](C)[C@@H](CC1)O[C@@]1(CC[C@@H](C)[C@@H](C[C@H](C)O)O1)[C@@H]2C [Oligomycin A] + C=CCn1c(=O)c2cnc(Nc3ccc(N4CCN(C)CC4)cc3)nc2n1-c1cccc(C(C)(C)O)n1 [MK1775],inactive: 0.427
7,CCCN1CCC[C@@H](c2cccc(O)c2)C1 [S(-)-3PPP hydrochloride] + C=CCn1c(=O)c2cnc(Nc3ccc(N4CCN(C)CC4)cc3)nc2n1-c1cccc(C(C)(C)O)n1 [MK1775],inactive: 0
8,Cc1ccc(S(=O)(=O)N[C@@H](CCCCN)C(=O)CCl)cc1 [Na-p-Tosyl-L-lysine chloromethyl ketone hydrochloride] + C=CCn1c(=O)c2cnc(Nc3ccc(N4CCN(C)CC4)cc3)nc2n1-c1cccc(C(C)(C)O)n1 [MK1775],inactive: -0.502
9,O=C(Oc1ccc([N+](=O)[O-])cc1)N1CCC(C(O)(c2ccc3c(c2)OCO3)c2ccc3c(c2)OCO3)CC1 + C=CCn1c(=O)c2cnc(Nc3ccc(N4CCN(C)CC4)cc3)nc2n1-c1cccc(C(C)(C)O)n1 [MK1775],inactive: 0.0643
